Data published in patent US20140100183A1, “CENTRAL ADMINISTRATION OF STABLE FORMULATIONS OF THERAPEUTIC AGENTS FOR CNS CONDITIONS” (The Regents of the University of Colorado, a body corporate, priority 2006, published 2014).
At least one structure is not confirmed: it was looked up by name or label, or the drawing left a doubt.

System: patients diagnosed with psychotic disorders
Test: ICV or cisterna magna treatment of psychotic disorders (Example 5)
Settings: central administration, 0.01 to 0.1 mg per hour, 1 week

SMILES: Cc1cc2c(s1)Nc1ccccc1N=C2N1CCN(C)CC1 [Olanzapine]
- alleviation of psychotic symptoms: efficacious therapeutic alleviation of psychotic symptoms
